No constants are given. Whether binding was seen depends on the method and setting. In cells and extracts the contact can be indirect. Some results given as binding are weak or reduced against the parent protein; the word gives no strength.
How the values were obtained:
Test in all cases: co-IP; HA-EB1 WT, 3A or 3D immunoprecipitated from lysates of transfected cells with antibody-coated agarose beads, 4°C, 2 h; immunoblot for p150^glued and CLIP-170
[1] = target: HA-EB1 3A (phospho-deficient mutant S40A/T154A/T206A) (UniProt Q15691)
[2] = target: HA-EB1 WT (end-binding protein 1, wild type) (UniProt Q15691)
[3] = target: HA-EB1 3D (phospho-mimetic mutant S40D/T154D/T206D) (UniProt Q15691)

Amino acid sequences for entries named in this document (tags omitted). A change or cut given only in a name is not applied to a line headed by its entry.
UniProt Q15691: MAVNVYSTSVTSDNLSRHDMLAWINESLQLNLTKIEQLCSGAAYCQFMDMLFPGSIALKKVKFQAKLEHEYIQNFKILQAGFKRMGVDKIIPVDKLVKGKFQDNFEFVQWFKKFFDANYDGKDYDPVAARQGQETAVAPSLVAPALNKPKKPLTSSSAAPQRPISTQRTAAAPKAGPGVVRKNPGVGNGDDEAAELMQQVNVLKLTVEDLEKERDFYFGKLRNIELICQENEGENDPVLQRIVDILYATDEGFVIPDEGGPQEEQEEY

Measured: binding

p150^glued, endogenous (from UniProt Q14203-1 1-1278)
binds: all assays above
